No constants are given. Whether binding was seen depends on the method and setting. For part of these data: In cells and extracts the contact can be indirect. Some binding calls cover weakened binding; strength is not graded here. Where a sequence is shown, tags or fusion partners need not be part of it.

Assay [1] has as its target T1, myc-COT-1 (N. crassa) (UniProt P38679).
T1 sequence: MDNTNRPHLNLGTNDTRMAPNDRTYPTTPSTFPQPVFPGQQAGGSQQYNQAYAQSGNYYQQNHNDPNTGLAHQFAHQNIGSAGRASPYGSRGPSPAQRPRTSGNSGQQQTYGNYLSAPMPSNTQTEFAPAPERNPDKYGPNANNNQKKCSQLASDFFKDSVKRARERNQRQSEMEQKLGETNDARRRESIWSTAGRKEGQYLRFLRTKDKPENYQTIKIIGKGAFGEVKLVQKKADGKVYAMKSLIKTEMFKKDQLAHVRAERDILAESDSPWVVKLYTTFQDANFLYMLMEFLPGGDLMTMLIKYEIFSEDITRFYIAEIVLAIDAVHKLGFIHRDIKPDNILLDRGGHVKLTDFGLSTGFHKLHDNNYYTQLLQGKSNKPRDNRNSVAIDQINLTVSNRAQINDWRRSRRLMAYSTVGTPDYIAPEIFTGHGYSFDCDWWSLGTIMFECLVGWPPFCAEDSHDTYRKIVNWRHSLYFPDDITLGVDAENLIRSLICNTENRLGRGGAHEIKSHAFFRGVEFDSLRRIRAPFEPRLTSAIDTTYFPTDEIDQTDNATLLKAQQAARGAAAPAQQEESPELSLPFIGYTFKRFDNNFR
As to the kind of experiment: co-IP; cell extracts co-expressing both tagged proteins; less stringent washing than two washes with IP buffer (conditions not told); Western blot.

Assay [2] has as its target T1, myc-COT-1 (N. crassa). Kind of assay: co-IP; displacement assay, the complex before displacement: myc-COT-1/HA-POD-6 complex precipitated from cell extracts; Western blot; mock-IP precipitate as control. (A western blot detects proteins with antibodies after separation by electrophoresis.)
Assay [3] deals with N-terminal kinase domain of POD-6 (aa 1-412), yeast two-hybrid fusion (N. crassa) (UniProt V5IQR8). As to the kind of experiment: two-hybrid; Matchmaker Two-Hybrid system 3; Gal4 activation domain (pGADT7) and DNA-binding domain (pGBKT7) fusions co-expressed in S. cerevisiae AH109; growth on SD lacking adenine, histidine, leucine and tryptophan or on SD with 10 mM 3-amino-1,2,4-triazole lacking leucine, tryptophan and histidine.

B1: HA-POD-6 (enzyme, UniProt V5IQR8 1-928)
chain: MATLSVYGSDFLTTTKKKAIEDAKKMQTVVAEECNKSGKEAPPYQLEELIGKGSFGRVYKATDNKSNAVVAVKIIDIEESDRENPRLADTYSEFMKETSALKLLSNSGAKNINLILDVLPVGQSMWLITEYCAGGSVATLMKPTAPGGLQEKWIIPILREVAEAIFWVHKEGIIHRDIKCANVLVTETGAVQLCDFGVAGIVETKFDKRSTFIGTPHWMAPELFEPTPSYSTPVDIWAFGSMVYEIASGLPPNVMSGFNIPQLGNYIKSHAPRLEGDQYSDNLKDLVAFCLVEDPAKRPTIEQVQRHPYIFNTSSEYPTASLSNLVRGYKVWEAQGGIRKSLFAPVGAQGPSDYASTALSNDEWNFSTTVDFDRMAMDSDAQAVYDVYGHNVDFDFDEEQTRRPKPKGRRRPPPPKLLALKAPLEKLFDPNTISGYNENSRAYYGLGPTSTSEAASAPEPPKDSDLNLRQYEPSSQAALRESLIDLDASFDGNDLSQFVDMETIKAGPRGSIDYAAFNPNPDFSKPPLSDPADMPMNINRRTQDWKFPSMAAPPASAHPEMSRFPWNEERSNDSHNDNFVRPPLIHHPTDPLGFQSTGYDSMPPKPPVDNRVSVGSLIDLDESLPMPTNDFTNREYTRPSTANSDAASVSGSEIGGANPFDLERHASLYQPLPVVRSSSVREPSIYVSDDSDYARVAQAPSEEHFIGTNGRGTPDYASSVNGGGSIGNGSIGGGSIGGGSIGSRTSSRAHSRADSYSYATDDDVGGYSAGEYAESEYLGGSMDPMAMSGEGRNRSRRRPSGMRPDPDSHHPPRGYGMGGSMNGNNGTGSHGGGHHGHQVHHGHGHGQYHGHGHGHSNSQGSTDMMHMPHVPEPPRVRVMQGMANREEVRDDVMRLLASFSEHLGFANAHVNTLPVRQGRRGSEVDTSV
Consider B1, for which the binding entry with myc-COT-1 (N. crassa) [1] and with myc-COT-1 (N. crassa) [2] was “binds” in each case.

B2: N-terminal kinase domain of POD-6 (aa 1-412), yeast two-hybrid fusion (domain or fragment, UniProt V5IQR8 1-412)
chain: MATLSVYGSDFLTTTKKKAIEDAKKMQTVVAEECNKSGKEAPPYQLEELIGKGSFGRVYKATDNKSNAVVAVKIIDIEESDRENPRLADTYSEFMKETSALKLLSNSGAKNINLILDVLPVGQSMWLITEYCAGGSVATLMKPTAPGGLQEKWIIPILREVAEAIFWVHKEGIIHRDIKCANVLVTETGAVQLCDFGVAGIVETKFDKRSTFIGTPHWMAPELFEPTPSYSTPVDIWAFGSMVYEIASGLPPNVMSGFNIPQLGNYIKSHAPRLEGDQYSDNLKDLVAFCLVEDPAKRPTIEQVQRHPYIFNTSSEYPTASLSNLVRGYKVWEAQGGIRKSLFAPVGAQGPSDYASTALSNDEWNFSTTVDFDRMAMDSDAQAVYDVYGHNVDFDFDEEQTRRPKPKGRRRP
Consider B2, for which, in assay [3], the binding result was “binds”.

Source of the values: article PMC3998894.
